Assay results published in PubChem BioAssay AID2685 (National Center for Advancing Translational Sciences (NCATS), 2010).
The list shows a part of the results. Shown are side measurements of this screen, not its main read-out; they come without a call. Most of these compounds were active or inconclusive in the main read-out, so they are no random draw. Words in brackets tell the shape of the fitted curve; partial curves, single points and poor fits give uncertain potencies.

Assay: qHTS Assay for Lipid Storage Modulators in Drosophila S3 Cells;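 for cell number change: cells counted by Cell Tracker Red CMTPX staining in the red channel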
Conditions: BODIPY lipid droplet fluorescence, 18-24 h; for cell number change: measured here: cell count max response, cells fed with added oleic acid
In short: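 Drosophila S3 cells loaded with oleic acid (400 uM, as added) and compounds at several concentrations; lipid droplets imaged by 488-nm laser-scanning cytometry, 500–530 nm intensity and object ratio to cell channel. Percent activity normalized to 20 uM Triacsin C.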

[1] = measured here: lipid fluorescence (Fed channel) AC50, cells fed with added oleic acid
[2] = measured here: cell number channel AC50, cells fed with added oleic acid

Structure (SMILES): CCOc1ccccc1NC(=O)N1CCCN(c2ncccc2C#N)CC1
- cell number change: 18%
- AC50 [1]: 3.66 µM [rising, partial curve, poor fit]

Structure (SMILES): Cn1c(NC(=O)/C=C/c2ccccc2)cc(=O)n(C)c1=O
- cell number change: 11.1%
- AC50 [1]: 0.0731 µM [rising, full curve, poor fit]

Structure (SMILES): CC(=O)NC(Cc1ccccc1)C(=O)NC1CCN(C(=O)NCc2ccccc2)CC1 (stereo not drawn)
- cell number change: 8.87%
- AC50 [1]: 1.3 µM [rising, partial curve]

Structure (SMILES): Cc1ccc(-c2csc(NC(=O)COC(=O)c3cccc(S(=O)(=O)N4CCOCC4)c3)n2)cc1
- cell number change: -30%
- AC50 [1]: 5.8 µM [falling, full curve, poor fit]

Structure (SMILES): COc1ccc(-n2ncc3c2CC(C)(C)CC3NC(=O)C2=CC(=O)CC(C)(C)O2)cc1 (stereo not drawn)
- cell number change: 17.5%
- AC50 [1]: 29.1 µM [falling, single point]

Structure (SMILES): Cc1nc2ccccc2c2c1C(=O)NC2=O
- cell number change: 7.97%
- AC50 [1]: 6.51 µM [rising, single point]

Structure (SMILES): O=C1C2C3CCC(C3NCc3ccccc3)C2C(=O)N1Cc1ccccc1 (stereo not drawn)
- cell number change: 9.66%

Structure (SMILES): O=c1[nH]c(CSc2nnc(-c3ccco3)n2-c2ccccc2)nc2sc3c(c12)CCC3
- cell number change: 2.29%
- AC50 [1]: 0.291 µM [rising, full curve]

Structure (SMILES): Cc1ccc(C(=O)CC(=O)c2ccccc2C)c(O)c1
- cell number change: -45.1%
- AC50 [2]: 29.1 µM [falling, single point]
- AC50 [1]: 18.4 µM [falling, partial curve]

Structure (SMILES): O=C(NCC(=O)N1CCN(C/C=C/c2ccccc2)CC1)c1ccc(OC(F)F)cc1
- cell number change: -13.2%

Structure (SMILES): CCCC(=O)NC(=S)Nc1ccc(CN2CCOCC2)cc1
- cell number change: -37.5%
- AC50 [2]: 2.31 µM [rising, partial curve]
- AC50 [1]: 2.91 µM [rising, partial curve]

Structure (SMILES): CCn1c(=O)n(CC)c2cc(S(=O)(=O)Nc3ccccc3C)c(C)cc21
- cell number change: -55.2%
- AC50 [2]: 25.9 µM [falling, single point]
- AC50 [1]: 29.1 µM [falling, single point]

Structure (SMILES): CC1(C)CC(=O)C(N=Nc2cc(C(F)(F)F)ccc2Cl)=C(O)C1
- cell number change: 0.488%
- AC50 [1]: 0.00517 µM [falling, full curve, poor fit]

Structure (SMILES): COc1ccc(NC(=O)c2ccccc2C)c(OC)c1
- cell number change: -20.5%

Structure (SMILES): CC1CC(=O)N(CC(=O)NCc2ccccc2)c2ccccc2S1(=O)=O (stereo not drawn)
- cell number change: -16.4%
- AC50 [1]: 18.4 µM [rising, partial curve]

Structure (SMILES): CC(=O)c1ccc(OCc2cc(C(=O)N3CCC(c4ccncc4)CC3)no2)cc1
- cell number change: -23.5%
- AC50 [1]: 29.1 µM [falling, single point]

Structure (SMILES): CCOc1cc(C2C(C(C)=O)=C(C)Nc3ncnn32)ccc1O (stereo not drawn)
- cell number change: 23%

Structure (SMILES): O=C(c1ccc(CS(=O)(=O)c2c(Cl)cccc2Cl)o1)N1CCN(c2ccccn2)CC1
- cell number change: -27.1%
- AC50 [1]: 29.1 µM [falling, single point]

Structure (SMILES): O=C(NCc1ccc2c(c1)OCO2)c1ccccc1
- cell number change: 68.9%
- AC50 [2]: 5.17 µM [rising, full curve]

Structure (SMILES): COc1ccc(C2C3=C(CC(C)(C)CC3=O)Oc3ncn(Cc4ccccc4)c(=N)c32)cc1 (stereo not drawn)
- cell number change: 79.5%
- AC50 [2]: 16.4 µM [rising, single point]
- AC50 [1]: 0.0146 µM [rising, full curve, poor fit]

Structure (SMILES): CC(=O)NC12CC3CC(C1)CC(C(=O)N1CCN(S(=O)(=O)c4ccc(Cl)s4)CC1)(C3)C2
- cell number change: 15.3%

Structure (SMILES): O=C(NCc1ccc2c(c1)OCO2)c1cccc([N+](=O)[O-])c1
- AC50 [1]: 0.116 µM [rising, full curve, poor fit]

Structure (SMILES): COc1cc2c(cc1OC)CN(c1nc(CN3CCCC3)nc3sc(C)c(C)c13)CC2
- AC50 [1]: 0.058 µM [rising, full curve]

Structure (SMILES): O=C(CNC(=O)C1CCCCC1)OCC(=O)c1ccc(F)cc1
- cell number change: -6.35%

Structure (SMILES): CS(=O)(=O)N1CCc2ccc(NC(=O)C3CCCO3)cc2C1 (stereo not drawn)
- cell number change: 10.4%

Structure (SMILES): COc1ccc(CCN2C(=O)C3CC(C)=C(C)CC3C2=O)cc1OC (stereo not drawn)
- cell number change: -80%
- AC50 [2]: 23.1 µM [falling, partial curve, poor fit]

Structure (SMILES): COc1ccc(S(=O)(=O)Nc2cc(SCC(=O)O)c(O)c3ccccc23)cc1
- cell number change: -12.5%

Structure (SMILES): O=C(N/N=C/c1cc([N+](=O)[O-])ccc1O)C(O)(c1ccccc1)c1ccccc1
- cell number change: -9.07%
- AC50 [1]: 29.1 µM [falling, single point]

Structure (SMILES): CCCc1ccc(OCc2nc(-c3ccc(NC(=O)c4cccs4)cc3)no2)cc1
- cell number change: 2.67%
- AC50 [1]: 6.51 µM [falling, single point]

Structure (SMILES): COc1ccccc1CNC(=O)c1cn(C)c2ccc(S(=O)(=O)N3CCCC3)cc2c1=O
- cell number change: -11.5%
- AC50 [1]: 1.84 µM [rising, partial curve]

Structure (SMILES): COc1ccc(Cl)cc1NC(=S)N1CCCCCC1
- cell number change: -13.9%
- AC50 [1]: 29.1 µM [falling, single point]

Structure (SMILES): O=S(=O)(NC(=S)Nc1ccccc1)c1ccc(F)cc1
- cell number change: -15.7%
- AC50 [1]: 4.11 µM [falling, full curve, poor fit]

Structure (SMILES): Cc1cccc(C)c1NC(=O)c1c(O)c2ccccc2[nH]c1=O
- cell number change: -42%
- AC50 [2]: 29.1 µM [falling, single point]

Structure (SMILES): Cc1ccc(C(=O)c2c3ccccc3[n+]([O-])n2CCO)cc1
- cell number change: -13.1%
- AC50 [1]: 0.146 µM [falling, full curve, poor fit]

Structure (SMILES): COC(=O)c1cc(OC)c(OC)cc1NC(=O)Nc1ccc(OC)cc1
- cell number change: 32.1%
- AC50 [2]: 29.1 µM [rising, single point]
- AC50 [1]: 6.51 µM [falling, single point]

Structure (SMILES): COc1cccc(N2CCN(c3ccc4nnc(CCC(=O)Nc5ccc(F)cc5F)n4n3)CC2)c1
- cell number change: -31.7%
- AC50 [2]: 3.26 µM [falling, partial curve, poor fit]
- AC50 [1]: 0.651 µM [falling, full curve]

Structure (SMILES): COC(=O)C1=C(C)NC(=S)NC1c1sccc1C (stereo not drawn)
- cell number change: 0.773%

Structure (SMILES): Cc1c(Cl)cccc1NC(=S)N/N=C/c1ccccc1Cl
- cell number change: -0.845%
- AC50 [1]: 20.6 µM [falling, single point]

Structure (SMILES): COc1cccc(CNC(=O)c2ccc(Cl)c(S(=O)(=O)N3CCOCC3)c2)c1
- cell number change: -3.35%
- AC50 [1]: 0.146 µM [falling, full curve, poor fit]
